Results published in patent US7915402B2, “Antioxidant inflammation modulators: oleanolic acid derivatives with saturation in the C-ring” (Reata Pharmaceuticals, Inc., priority 2008, dated 2011).
Some of these results come from one statement about several compounds together.

System: mice
Settings: 14-day study, oral gavage, higher doses (above 10 mg/kg/day)

In the case of `COC(=O)[C@]12CCC(C)(C)C[C@H]1[C@H]1C(=O)C=C3[C@@]4(C)C=C(C#N)C(=O)C(C)(C)[C@@H]4CC[C@@]3(C)[C@]1(C)CC2` [Compound 402, reference compound], the mortality is reported as “at least 50%”.
